Patent US20240319166A1, “Genetically-encoded volatile synthetic biomarkers for breath-based cancer detection” (The Board of Trustees of the Leland Stanford Junior …, priority 2021, published 2024)

Test system: limonene
Assay: Chamber/sorbent trap VOC sampling from xenograft tumor mice (GC-MS)
Assay type: in vivo
Conditions: xenograft mouse model, limonene-expressing HeLa cells

Question: Which results are given for C=C(C)[C@H]1CC=C(C)CC1 [limonene]?
Answer: smallest tumor diameter at which limonene was detected: ~5 mm; smallest tumor volume at which limonene was detected: 120 mm^3
